For at least one compound, name, drawing or mass did not settle the structure.
Test system: Pseudomonas aeruginosa
Test: NMR detection of antibiotic-induced perturbation in microbial metabolism (M9 medium)
Type: cell-based
Conditions: 12 hours

CN(C)[C@@H]1C(O)=C(C(N)=O)C(=O)[C@@]2(O)C(O)=C3C(=O)c4c(O)cccc4[C@@](C)(O)[C@H]3C[C@@H]12 [tetracycline]
metabolic activity by NMR (glucose consumption, acetate and pyoverdine production) (drug resistant isolates, with and without 60 ug/ml tetracycline): metabolically active
metabolic activity by NMR (glucose consumption, acetate and pyoverdine production) (drug sensitive isolate, 60 ug/ml tetracycline): metabolic inactivation

Source: patent US12503719B2, “Metabolomic characterization of microorganisms” (priority 2019, dated 2025)
